Reference: paper PMC11497104
These are yes or no findings as the source states them, for the method shown. Binding seen in cells or lysates may run through a third protein. Some results given as binding are weak or reduced against the parent protein; the word gives no strength. For some assays here: Sequences can lack the tags named with a protein. One block for each binder: values may come before it.

Sequences of proteins named here, by UniProt entry; tags and fusion partners are left off. A change or cut given only in a name is not applied to a line headed by its entry. Residues count along the entry.
UniProt Q00987: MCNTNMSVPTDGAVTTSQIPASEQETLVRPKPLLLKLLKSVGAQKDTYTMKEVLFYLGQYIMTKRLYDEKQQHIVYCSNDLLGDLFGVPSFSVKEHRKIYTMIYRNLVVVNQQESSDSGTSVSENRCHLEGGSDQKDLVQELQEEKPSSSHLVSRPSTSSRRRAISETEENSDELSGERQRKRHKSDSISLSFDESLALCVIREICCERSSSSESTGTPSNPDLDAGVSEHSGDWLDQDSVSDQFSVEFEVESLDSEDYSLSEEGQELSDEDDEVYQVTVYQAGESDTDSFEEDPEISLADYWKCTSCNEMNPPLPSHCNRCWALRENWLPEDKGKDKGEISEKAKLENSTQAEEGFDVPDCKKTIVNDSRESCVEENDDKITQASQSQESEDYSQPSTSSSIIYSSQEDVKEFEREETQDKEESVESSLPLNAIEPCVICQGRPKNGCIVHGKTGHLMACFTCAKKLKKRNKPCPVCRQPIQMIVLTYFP
His-MDM2-ΔN (1-108aa): residues 109-491 of Q00987

Experiments:
[1] = molecular target: MDM2 in HEK293 cells (Figure S10G) (UniProt Q00987); experiment: co-IP; HEK293 cells overexpressing FGF12 (Figure S10G); details not shown
[2] = molecular target: His-MDM2-ΔN (1-108aa) (UniProt Q00987); experiment: co-IP; HEK293 cells co-transfected with Flag-Fgf12 and His-MDM2 (WT or deletion mutants), 48 h; lysates precipitated with anti-His or anti-Flag antibody, blotted for the other tag
[3] = molecular target: His-tagged MDM2 (His-MDM2-WT) (UniProt Q00987); experiment: as above
[4] = molecular target: MDM2 (endogenous, keratinocytes) (human (endogenous in HaCaT and NHEK)) (UniProt Q00987); experiment: co-IP; HaCaT cells transfected with Flag-Fgf12 plasmid (0, 2, 4 µg), M5 for 12 h, MG132 10 µM for 6 h; precipitated with anti-MDM2, blotted with anti-β-Trcp, anti-MDM2, anti-Flag
[5] = molecular target: MDM2 (endogenous, keratinocytes) (human (endogenous in HaCaT and NHEK)) (UniProt Q00987); experiment: co-IP; endogenous proteins, HaCaT lysates; precipitated with anti-MDM2 (IgG as control) or anti-FGF12; untreated, M5 for 0, 12, 24, 48 h, or si-Scr/si-Fgf12

binding [1]: binds
binding [2]: binds
binding [3]: binds
B1: Flag-tagged FGF12 (fibroblast growth factor 12) (protein, UniProt P61328 1-243)
chain: MAAAIASSLIRQKRQARESNSDRVSASKRRSSPSKDGRSLCERHVLGVFSKVRFCSGRKRPVRRRPEPQLKGIVTRLFSQQGYFLQMHPDGTIDGTKDENSDYTLFNLIPVGLRVVAIQGVKASLYVAMNGEGYLYSSDVFTPECKFKESVFENYYVIYSSTLYRQQESGRAWFLGLNKEGQIMKGNRVKKTKPSSHFVPKPIEVCMYREPSLHEIGEKQGRSRKSSGTPTMNGGKVVNQDST

binding [4]: binds
B2: Flag-tagged FGF12 expressed in HaCaT cells (protein, UniProt P61328 1-243)
chain: B1 chain

binding [5]: binds
B3: FGF12 (endogenous, keratinocytes) (protein, UniProt P61328 1-243)
chain: B1 chain
